Data source: PubChem BioAssay AID743121 (NCATS, 2013)
Screen: 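Knock-downs that sensitise breast cancer cells to camptothecin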 (primary screen). System: MDA-MB-231 cells, a human breast cancer line. Reagent: single siRNA against human genes, 20 nM siRNA (0.8 pmol per well). Time to read-out: 120 h (drug added 48 h after transfection, read 72 h later). Challenge: camptothecin 20 nM (about EC30) for 72 h; vehicle 0.1% DMSO in parallel plates. Measurement: 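CellTiter-Glo ATP signal, scaled to control siRNA as percent viability; sensitisation given as log2 of untreated divided by camptothecin-treated viability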. Direction: log2 vehicle/camptothecin viability: higher = stronger sensitisation to camptothecin. Call rule: 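Active genes have an RSA gene-level p-value below 0.001, computed from the ratios of their separate siRNAs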.
The deposit covers about 26,000 reagents; shown is a random part of them. In the full data, 167 (0.63%) got an active call. 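Calls are per gene from RSA p-values that are not deposited; an individual active-marked siRNA can sensitise only weakly.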 A number with no mark means an inactive call. The numbers tell different reagents against one gene apart. Further read-outs or replicates are left out here.

The opening 4 entries as a preview:
Gene	siRNA no.	log2 vehicle/camptothecin viability
TAS2R3	1	-0.226
TAS2R3	2	-0.0943
TAS2R3	3	0.0991
TAS2R3	4	0.16

The list itself, from the start:
Gene	siRNA no.	log2 vehicle/camptothecin viability
TAS2R3	1	-0.226
TAS2R3	2	-0.0943
TAS2R3	3	0.0991
TAS2R3	4	0.16
TGM2	1	1.03
TGM2	2	0.925
TGM2	3	-0.181
TGM2	4	-0.311
TRPC5	1	-0.28
TRPC5	2	-0.101
TRPC5	3	-0.0103
PDCD10	1	-0.367
PDCD10	2	-0.0618
PDCD10	3	-0.379
PDCD10	4	-0.318
BTN2A3P	1	0.232
BTN2A3P	2	-0.259
BTN2A3P	3	0.0613
BTN2A3P	4	-0.0948
ADAM29	1	-0.00546
ADAM29	2	-0.206
ADAM29	3	0.131
ADAM29	4	-0.333
KCNC2	1	0.58
KCNC2	2	0.0254
KCNC2	3	0.0607
GSTO1	1	-0.0254
GSTO1	2	0.17
GSTO1	3	-0.0318
RDH12	1	-0.403
RDH12	2	0.0113
RDH12	3	0.505
NFKBIA	1	-0.156
NFKBIA	2	-0.403
NFKBIA	3	-0.177
NFKBIA	4	-0.337
ITPA	1	-0.176
ITPA	2	-0.195
ITPA	3	-0.275
ITPA	4	-0.509
CACNG5	1	0.47
CACNG5	2	-0.142
CACNG5	3	-0.181
CACNG5	4	0.493
TP73	1	-0.0895
TP73	2	0.305
TP73	3	-0.0537
TP73	4	-0.172
